The results in this text go back to PubChem BioAssay AID226 (DTP/NCI, 2004).

The experiment relates to B6C3F1 mice, intracerebral ependymoblastoma, median survival T/C. Briefly: NCI In Vivo Anticancer Drug Screen. Data for tumor model Ependymoblastoma (intracerebral) in B6C3F1 mice. Particulars: T/C endpoint: median survival time, higher T/C = longer survival. Here is the method:
The antitumor activity of compounds was measured in mice bearing transplantable tumors. Survival or tumor size were measured and the results are expressed as the measurement made in the treated group (T) divided by the measurement made in the vehicle treated control group (C). The tumor model used in this assay is Ependymoblastoma (intracerebral) in B6C3F1 mice

The mark [1] stands for this setting: dose: 150.0 mg/kg/injection, schedule: Q01DX005 (ip), vehicle: Klucel (hydroxypropylcellulose) (HPC).
[2] abbreviates: dose: 64.0 mg/kg/injection, schedule: Q01DX005 (ip), vehicle: saline with Tween-80.
[3] abbreviates: dose: 100.0 mg/kg/injection, schedule: Q01DX005 (ip), vehicle: saline with Tween-80.
[4] abbreviates: dose: 32.0 mg/kg/injection, schedule: Q01DX005 (ip), vehicle: saline with Tween-80.

SMILES strings stand for the structures. The list does not hold the whole screen: it gathers tests that were run many times, whatever their T/C, doses with no T/C, and many T/C values between a quarter and a half above the control. Other doses and runs of a compound stand elsewhere. T/C gives the treated animals as a percentage of the vehicle group. Some doses have a count of surviving animals in place of a T/C: the source files T/C as zero there, which appears to mark a toxic dose or a test without result, not a measured value. Some doses without a T/C left all or most animals alive at the check, yet need not have been tolerated: the source hardly ever lists a survival T/C far under the control, and the zero likely stands for such cases as well. Counts of survivors are from the toxicity check (mostly the fifth day) where no day follows; animals may have died later. Schedules are NCI's codes, taken here to give the interval after Q, in days (D) or hours (H), and the number of doses after X. Some doses were run more than once; the values are given in rising order. Some schedules carry Z or #; the key to these is not given. Some molecules as drawn cover several salts, stereoisomers or complexes of the source; a dose is that of the sample tested. For survival time, this PubChem deposit counts one and a half times the control or more as active, and values a quarter to a half above the control carry no call in these data; other NCI protocols may use other cut-offs. Some T/C values carry the count of animals alive at the toxicity check (mostly the fifth day); without a count, all were alive then.

On to `COc1ccc(CC2C(=O)NC(C)C(=O)N(C)C3C(=O)N(C)C(Cc4ccc(O)c(c4)Oc4ccc(cc4)C3O)C(=O)NC(C)C(=O)NC(C)C(=O)N2C)cc1` (stereo not drawn), for which the survivor count (dose: 4.0 mg/kg/injection, schedule: Q01DX005 (ip), vehicle: Klucel (hydroxypropylcellulose) (HPC)) is on record as 0 of 10.
As for `Nc1nc(=S)c2ncn(C3OC(COC(=O)c4ccc(Cl)cc4)C(OC(=O)c4ccc(Cl)cc4)C3OC(=O)c3ccc(Cl)cc3)c2[nH]1` (stereo not drawn), the T/C (dose: 18.75 mg/kg/injection, schedule: Q01DX005 (ip), vehicle: Klucel (hydroxypropylcellulose) (HPC)) is 134 % of control [9 of 10 alive]; the T/C (dose: 37.5 mg/kg/injection, schedule: Q01DX005 (ip), vehicle: Klucel (hydroxypropylcellulose) (HPC)) was 130 % of control; the T/C under setting [1] was 125 % of control. In addition, under setting [1], the survivor count is 10 of 10.
Consider `CCCCN(C)N=Nc1ccc([N+](=O)[O-])cc1C(N)=O`, for which the T/C under setting [2] was 141 % of control. Under “dose: 512.0 mg/kg/injection, schedule: Q01DX005 (ip), vehicle: saline with Tween-80”, the survivor count is 7 of 10.
For `Nc1nc(=S)c2ncn(C3OC(COC(=O)c4ccccc4)C(OC(=O)c4ccccc4)C3OC(=O)c3ccccc3)c2[nH]1` (stereo not drawn), the survivor count under setting [3] was 10 of 10.
`CC(=O)Nc1ccc(/C=N/NC(N)=S)cc1`: the survivor count (dose: 1600.0 mg/kg/injection, schedule: Q01DX005 (ip), vehicle: Klucel (hydroxypropylcellulose) (HPC)) is 9 of 10.
On to `CCN(CC)c1ccc2cc3ccc(=[N+](CC)CC)cc-3oc2c1`, for which the T/C reads like this: (dose: 8.0 mg/kg/injection, schedule: Q01DX001 (ip), vehicle: saline) 95 [survivors not given], 101 [survivors not given], 102 [survivors not given], 111 % of control; (dose: 16.0 mg/kg/injection, schedule: Q01DX001 (ip), vehicle: saline) 97, 97 [survivors not given], 104 [survivors not given], 114 % of control [survivors not given]; (dose: 32.0 mg/kg/injection, schedule: Q01DX001 (ip), vehicle: saline) 95 [8 of 10 alive], 95 [survivors not given], 97 [survivors not given], 106 % of control [survivors not given]; (dose: 64.0 mg/kg/injection, schedule: Q01DX001 (ip), vehicle: saline) 93 % of control [5 of 10 alive]. For the same molecule, under “dose: 16.0 mg/kg/injection, schedule: Q01DX005 (ip), vehicle: saline”, the survivor count was 0 of 10.
For `CN(CO)c1nc(N(C)CO)nc(N(C)CO)n1`, the T/C runs as follows: (dose: 1.56 mg/kg/injection, schedule: Q01DX005 (ip), vehicle: saline with Tween-80) 131 % of control; (dose: 6.25 mg/kg/injection, schedule: Q01DX005 (ip), vehicle: saline with Tween-80) 98, 102, 106, 107 % of control; (dose: 12.5 mg/kg/injection, schedule: Q01DX005 (ip), vehicle: saline with Tween-80) 101, 109, 114, 122 % of control; (dose: 12.5 mg/kg/injection, schedule: Q01DX009 (ip), vehicle: Klucel (hydroxypropylcellulose) (HPC)) 125 % of control; (dose: 25.0 mg/kg/injection, schedule: Q01DX005 (ip), vehicle: saline with Tween-80) 108, 109, 113, 118 % of control; (dose: 50.0 mg/kg/injection, schedule: Q01DX005 (ip), vehicle: saline with Tween-80) 101, 113, 114, 116 % of control. The survivor count runs as follows: under setting [3], 7 of 10; (dose: 200.0 mg/kg/injection, schedule: Q01DX005 (ip), vehicle: saline with Tween-80) 0 of 10; (dose: 400.0 mg/kg/injection, schedule: Q01DX005 (ip), vehicle: saline with Tween-80) 0 of 10; (dose: 800.0 mg/kg/injection, schedule: Q01DX005 (ip), vehicle: saline with Tween-80) 0 of 10.
Consider `CCN(CC)CCOc1ccc(/C(=C(\Cl)c2ccccc2)c2ccccc2)cc1`, for which, for the setting “dose: 128.0 mg/kg/injection, schedule: Q01DX005 (ip), vehicle: saline”, the survivor count is 3 of 10 and 8 of 10.
Take `O=C1c2ccccc2C(=O)c2c(NCCNCCO)ccc(NCCNCCO)c21`: the survivor count reads like this: under setting [4], 10 of 10; under setting [2], 8 of 10; (dose: 64.0 mg/kg/injection, schedule: Q04DX003 (ip), vehicle: water) 10 of 10; (dose: 128.0 mg/kg/injection, schedule: Q04DX003 (ip), vehicle: water) 3 of 10.
Consider `CCOC(=O)C(CC(C)C)NC(=O)C(Cc1ccc(N(CCCl)CCCl)cc1)NC(C)=O` (stereo not drawn), for which the T/C under setting [4] is 130 % of control and the T/C under setting [2] was 134 % of control. For the same molecule, the survivor count reads like this: (dose: 64.0 mg/kg/injection, schedule: Q01DX005 (ip), vehicle: Klucel (hydroxypropylcellulose) (HPC)) 10 of 10; (dose: 128.0 mg/kg/injection, schedule: Q01DX005 (ip), vehicle: Klucel (hydroxypropylcellulose) (HPC)) 5 of 10; (dose: 128.0 mg/kg/injection, schedule: Q01DX005 (ip), vehicle: saline with Tween-80) 9 of 10 and 10 of 10.
As for `c1cc2n(n1)CCN2`, the survivor count runs as follows: (dose: 256.0 mg/kg/injection, schedule: Q01DX005 (ip), vehicle: water) 10 of 10; (dose: 512.0 mg/kg/injection, schedule: Q01DX005 (ip), vehicle: water) 0 of 10; (dose: 512.0 mg/kg/injection, schedule: Q01DX005 (oral), vehicle: water) 9 of 10; (dose: 512.0 mg/kg/injection, schedule: Q#A X002 (ip), vehicle: water) 0 of 10; (dose: 512.0 mg/kg/injection, schedule: Q#A X004 (ip), vehicle: water) 6 of 10; (dose: 512.0 mg/kg/injection, schedule: Q#A X006 (ip), vehicle: water) 10 of 10. Moreover, the survivor count was 1 of 10 (dose: 1024.0 mg/kg/injection, schedule: Q01DX001 (ip), vehicle: water); 3 of 10 and 6 of 10 (dose: 1024.0 mg/kg/injection, schedule: Q01DX001 (oral), vehicle: water); 0 of 10 (dose: 1024.0 mg/kg/injection, schedule: Q01DX005 (oral), vehicle: water); 0 of 10 (dose: 1024.0 mg/kg/injection, schedule: Q#A X002 (ip), vehicle: water); 0 of 10 (dose: 1024.0 mg/kg/injection, schedule: Q#A X004 (ip), vehicle: water). Also, the T/C (dose: 256.0 mg/kg/injection, schedule: Q#A X004 (ip), vehicle: water) is 130 % of control.
Turning to `O=P(NC12CC3CC(CC(C3)C1)C2)(N1CC1)N1CC1`, the T/C runs as follows: (dose: 9.0 mg/kg/injection, schedule: Q01DX005 (ip), vehicle: Klucel (hydroxypropylcellulose) (HPC)) 125 % of control; (dose: 18.0 mg/kg/injection, schedule: Q01DX005 (ip), vehicle: Klucel (hydroxypropylcellulose) (HPC)) 125 % of control.
